Measurements reported in patent CN111018985A.
Substitutions are numbered along the chain they refer to. No constants are given. Whether binding was seen depends on the method and setting. Some entries that bind do so weakly or less than the wild type.

Chains of the proteins cited; added tags and fusions are not shown. Residues count along the entry.
UniProt P02769, residues 25-607: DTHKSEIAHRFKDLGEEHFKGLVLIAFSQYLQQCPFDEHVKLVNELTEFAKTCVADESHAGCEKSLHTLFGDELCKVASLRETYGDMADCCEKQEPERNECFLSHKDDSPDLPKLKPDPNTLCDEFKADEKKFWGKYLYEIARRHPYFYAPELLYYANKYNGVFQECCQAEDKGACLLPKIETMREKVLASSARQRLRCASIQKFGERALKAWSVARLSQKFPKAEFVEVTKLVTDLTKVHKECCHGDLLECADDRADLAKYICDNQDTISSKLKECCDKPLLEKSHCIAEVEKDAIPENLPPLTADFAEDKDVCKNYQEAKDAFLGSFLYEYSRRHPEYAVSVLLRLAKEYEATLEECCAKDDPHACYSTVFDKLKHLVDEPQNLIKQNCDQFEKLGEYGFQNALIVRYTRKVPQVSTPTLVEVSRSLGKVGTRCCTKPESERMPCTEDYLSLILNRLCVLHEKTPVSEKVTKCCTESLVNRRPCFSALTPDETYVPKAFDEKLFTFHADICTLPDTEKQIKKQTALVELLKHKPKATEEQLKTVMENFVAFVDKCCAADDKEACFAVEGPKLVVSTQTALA

B1: 1A5 (VHH, not shown: small tags and cut ends)
VHH: QVQLQESGGGSVQAGGSLRLACAASGYTYSSSYMGWFRQAPGKEREGVAVIYTGGGRTYYADSVKGRFTVSRDNAKNTVYLQMNSLKPEDTAMYYCAADGSRRNWFSPLDPRKYNYWGQGTQVTVSS
B2: 1B2 (VHH, not shown: small tags and cut ends)
VHH: QVQLQESGGGTVQAGGSLTLSCAASGYTYNYMGWFRQAPGKEREGVAAIATSSGRAYYADSVKGRFTISQDNGKNTLHLQMNSLKPEDTAMYYCAAGSHYSGYSLSPGRYKYWGQGTQVTVSS
B3: 1C2 (VHH, not shown: small tags and cut ends)
VHH: B2 VHH with A50H, S52G, A56T, A59I, G73A, L77T, H78N, N82T, S101A, L105M
B4: 2C11 (VHH, not shown: small tags and cut ends)
VHH: B2 VHH with A48V, I49M, A50H, S52G, A59V, Q70R, G73A, L77V, L105M
B5: 2C6 (VHH, not shown: small tags and cut ends)
VHH: QVQLQESGGGSVQAGGSLRLSCAASGSADRRNYVAWFRQAPGKEREGVAALGIVSGFTHYADSVKGRFTISQDNARNTVYLQMNRMIPEDTAMYYCAADSRTRVLISWFLNPDKYNYWGRGTQVTVSS
B6: 2D10 (VHH, not shown: small tags and cut ends)
VHH: QVQLQESGGGSVQAGGSLRLSCAASEYTSSVTFMGWVRQAPGKEREGVATIYTVTGRTYYADSVKGRFTISQDKAKNTVYLQMDSLKPEDTAMYYCAATPFSLSKTTRLAKFGSLNENEYDLWGQGTQVTVSS
B7: 2D11 (VHH, not shown: small tags and cut ends)
VHH: B6 VHH with V54P, D84N
B8: 2D6 (VHH, not shown: small tags and cut ends)
VHH: QVQLQESGGGSVQTGGSLRLSCAASGNSDGAWSMGWFRQAPGKEREGVAALYVFTGITYYAGSVKGRFTISQDKAKNTVYLQMNSLKPEDTAMYYCAAGTAFPTLNRNKYNYWGQGTQVTVSS
B9: 1C9 (VHH, not shown: small tags and cut ends)
VHH: QVQLQESGGGSVRAGGSLRLSCAASGYTSSSYCMGWFRQAPGKEREGVAAIYTDTGGGSTYYADSVKGRFTISQGNAKNTLYLQMNSLKPEDTAMYYCAAVERRGGSCYTRYKYAAFAYWGQGTQVTVSS
B10: 2A11 (VHH, not shown: small tags and cut ends)
VHH: QVQLQESGGGSVQAGGSLRLSCTASGFTLDDSDLGWYRQAPGNECELVSIIRRDGSPYHTYYPDSVKGRFTISQDNAKNTLYLQMNSLKPEDTAVYYCAADPSRYYSDYGAPGCGFNYWGQGTQVTVSS
B11: 2C10 (VHH, not shown: small tags and cut ends)
VHH: QVQLQESGGGSVQAGGSLRLSCVASGYTFSSDCMGWFRQAPGKKREGVAAIYTSGSSTYYADSVKGRFTISRDNAKNTVYLEMNSLKPEDTAIYYCAARRSSGGYCYIGSDFQISLYNNWGQGTQVTVSS
B12: 2C9 (VHH, not shown: small tags and cut ends)
VHH: B1 VHH with G54A, P108Q
B13: 1A10 (VHH, not shown: small tags and cut ends)
VHH: B1 VHH with S11L, A21S, G54T, V70I, F106Y, P108Q
B14: 2B4 (VHH, not shown: small tags and cut ends)
VHH: B1 VHH with S11L, A14P, A21S, G54F, V70I, F106Y, P108Q, N115L
B15: 2A7 (VHH, not shown: small tags and cut ends)
VHH: B1 VHH with A21S, G54T, V70I, F106Y, P108Q
B16: 2B9 (VHH, not shown: small tags and cut ends)
VHH: B1 VHH with S11L, A14P, G54S, F106Y
B17: 2D2 (VHH, not shown: small tags and cut ends)
VHH: B1 VHH with G54S, F106Y
B18: 2A4 (VHH, not shown: small tags and cut ends)
VHH: QVQLQESGGGSVQAGGSLRLSCAASSYTGSVNYMAWFRQAPGKEREGVAAIYSGGGSTYYADSVKGRFTISRDNAKNTVYLQMNSLIPEDTATYYCASDQSRRSWFSPLVPGKYSLWGQGTQVTVSS
B19: 1A2 (VHH, not shown: small tags and cut ends)
VHH: QVQLQESGGGSVQAGGSLRLSCTASGFTSDDSDMGWYRQAPGNECELVSVVRSDGTTYYPPSVRGRFTISQDNAKNTVSLQMNSLKPEDTAVYYCAADPSPYYRDYGAPGCGFNYWGQGTQVTVSS
B20: 1C1 (VHH, not shown: small tags and cut ends)
VHH: QVQLQESGGGSVQAGGSLRLSCTASGFSLDDRDMGWYRQAPGNECELVSVIRSDGRTYYPDSVKGRFTISQDNAKRTLYLQMNSLKAEDTAVYYCAADPSRRYSDYGAPGCGFNYWGQGTQVTVSS
B21: 1B7 (VHH, not shown: small tags and cut ends)
VHH: B1 VHH with G16E, A21S, V70I, K76E, Q82R, F106Y
B22: 1C3 (VHH, not shown: small tags and cut ends)
VHH: B20 VHH with R56S, R76N, A87P, R102Y
B23: 2C5 (VHH, not shown: small tags and cut ends)
VHH: B20 VHH with R56S, R76N, A87P, R102Y, N114H
B24: 2D5 (VHH, not shown: small tags and cut ends)
VHH: QVQLQESGGGSVQAGGSLRLSCTASGFTPDGSDMGWYRQAPGNECELVSVIRSGGSTYYTDSVKGRFTISRDNAKNTLYLQMNSLKPEDTAVYYCAADPSRYYSDYGAPGCGFHYWGQGTQVTVSS
B25: 1C10 (VHH, not shown: small tags and cut ends)
VHH: QVQLQESGGGSVQAGGSLRLSCAVSGLTYSSNCMGWFRQAPGKEREGVAAIYNGGNTYYADSVKGRFTISRDNAKNTVYLEMNSLKPEDTAIYYCAARRSSGGYCYIGSDFQISLFNNWGQGTQVTVSS
B26: 1B3 (VHH, not shown: small tags and cut ends)
VHH: B2 VHH with A50S, A59V, G73A, L77T, H78Y, L105I
B27: 2B3 (VHH, not shown: small tags and cut ends)
VHH: B5 VHH with A14T, A28T, V34M, L51I, I53T, V54I, L105I, S107G
B28: 1D11 (VHH, not shown: small tags and cut ends)
VHH: QVQLQESGGGSVQAGGSLRLSCTASGYTHRMAWFRQAPGKEREGVAAIYTDVGHTYYAASVKGRFTIAQDNANNTAYLQMNSLKPEDTAIYYCAAARGGYSWRKVNEYNYWGQGTQVTVSS
B29: 2B1 (VHH, not shown: small tags and cut ends)
VHH: QVQLQESGGGSVQAGGSLRLSCAVSGYTLSNKWMGWFRQAPGKEREGVAAIYTGGGRTDYADSVKGRFTISQDNAQNTLYLQMNSLKPEDTAMYYCAAARGYGQNWYRTLRTEAYDIWGQGTQVTVSS
B30: 1D3 (VHH, not shown: small tags and cut ends)
VHH: B6 VHH with G35A, T58S, D84N, T106A
B31: 1D8 (VHH, not shown: small tags and cut ends)
VHH: B1 VHH with A21S, G54T, V70I, F106Y
B32: 1B4 (VHH, not shown: small tags and cut ends)
VHH: QVQLQESGGGSVQAGGSLRLSCVASRYMGSTYYMAWFRQAPGKEREGVAAIYIASGNSGSTYYADSVKGRFTISRDNAKNTVYLQMNSLIPEDTASYYCASDLSRRNWLPPLVPGKYSLWGQGTQVTVSS
B33: 1D10 (VHH, not shown: small tags and cut ends)
VHH: B18 VHH with S26G, S53G, G54Y, T93S, F106L
B34: 2D8 (VHH, not shown: small tags and cut ends)
VHH: B18 VHH with A23E, S26G, A40P, S53G, S63A, T93S, S107P

The binders below were run against 牛血清白蛋白(BSA) (牛 (bovine)) (UniProt P02769) (assay: ELISA, crude extract on BSA-Biotin captured by neutravidin, anti-HA detection; positive if OD > 5x control).

binding, binds:
B1, B2, B3, B4, B5, B6, B7, B8, B9, B10, B11, B12, B13, B14, B15, B16, B17, B18, B19, B20, B21, B22, B23, B24, B25, B26, B27, B28, B29, B30, B31, B32, B33, B34

These binders were tested against 牛血清白蛋白(BSA) (牛 (bovine)) (UniProt P02769) (assay: ELISA, 100 ng BSA coated, purified VHH, HRP anti-HA, OD450).

binding, binds:
B1, B2, B3, B4, B5, B6, B7, B8, B9, B10, B11, B12, B13, B14, B15, B16, B17, B18, B19, B20, B21, B22, B23, B24, B25, B26, B27, B28, B29, B30, B31, B32, B33, B34
